# Among all 320,000 compounds or so, about 2,100 (0.66%) were called active. The inconclusive results got no clear call from the source; some entries with a clear call stand among them for comparison. The call rests on the fitted dose curve; in most records, active means well fitted inhibition curve with a large enough effect in the signal ratio, with a control signal flat (not every such curve was filed as active); inconclusive means small, poorly fitted or top-dose-only effect, or effect the other way, or a change in a side signal; inactive means flat fitted curve, though single readings scatter; the % refers to the signal ratio. A potency beside an inconclusive call is a rough fit, not a confirmed value.
# Experiment: qHTS Assay for Lipid Storage Modulators in Drosophila S3 Cells
# Details: BODIPY lipid droplet fluorescence, 18-24 h, cells fed with added oleic acid; lipid storage change, negative = inhibition: at 46.1 µM (top of the series) unless noted
# Procedure, shortened: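 Drosophila S3 cells loaded with oleic acid (400 uM, as added) and compounds at several concentrations; lipid droplets imaged by 488-nm laser-scanning cytometry, 500–530 nm intensity and object ratio to cell channel. Percent activity normalized to 20 uM Triacsin C.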
# On the % scale 0 is the no-effect control and ±100 the full control effect; potency means the concentration at half of the fitted maximal effect.
SMILES,Potency,"lipid storage change, negative = inhibition",outcome
CCCCn1c(N)c(N(CCC(C)C)C(=O)COC(=O)c2sccc2C)c(=O)[nH]c1=O,"inconclusive: 0.461 µM [falling, single point]",,
Cc1ccn2c(c1)nc(=O)c1cc(S(=O)(=O)N3CCCCC3)ccc12,"inconclusive: 29.1 µM [falling, single point]",,
Cc1ccsc1C(=O)N(c1nc2ccccc2s1)c1c(C)cccc1C,"inconclusive: 23.1 µM [falling, single point]",,
O=C(c1ccccc1)c1c(O)cc(-c2ccccc2)oc1=O,"inconclusive: 25.9 µM [activator, single point]",,
O=C(NC1CCSc2ccccc21)c1ccc(F)cc1 (stereo not drawn),,inconclusive: 30.4%,
Cc1cc(C)n2nc(CNS(=O)(=O)c3ccc(CC(C)C)cc3)nc2n1,,inconclusive: 9.82%,
O=C(Nc1ccc(S(=O)(=O)N2CCCC2)cc1)c1ccc2c(=O)n3c(nc2c1)CCCCC3,,inconclusive: 25.2%,
COC(=O)c1cc(CNC(=O)c2ccc(N3CCCC3)c([N+](=O)[O-])c2)ccc1OC,,inconclusive: -9.64%,
Cc1cc(Cl)c(Cl)cc1S(=O)(=O)NCCCn1ccnc1,active: 6.51 µM,,
O=C1[C@H](O)[C@@H](O)C(=O)N1Cc1ccccc1,,inactive: 1.8%,
CCN1CCN(C(=O)NCc2ccccc2)CC1,,inconclusive: -37%,
Cc1ccc(C2(C)NC(=O)N(CC(=O)NNC(=O)c3ccccc3)C2=O)cc1 (stereo not drawn),"inconclusive: 0.651 µM [activator, full curve]",,
O=C(NCCOc1ccc(F)cc1)C1CCC(=O)N(CCc2ccccn2)C1 (stereo not drawn),,inconclusive: 6.96%,
O=C(NCc1ccccn1)C1CCN(S(=O)(=O)c2ccccc2C(F)(F)F)CC1,"inconclusive: 0.092 µM [activator, full curve]",,
COc1cc2c(cc1OC)CN(c1ccc(C(F)(F)F)cn1)CC2,"inconclusive: 29.1 µM [falling, single point]",,
C/C(=N/NC(=O)c1cc2ccccc2cc1O)C1C(=O)c2ccccc2C1=O,"inconclusive: 29.1 µM [falling, single point]",,
CCOC(=O)Cn1nc(CC)c2ccccc2c1=O,,inconclusive: -52.3%,
Cn1c(=O)c2c(nc(CN3CCCCC3)n2CCc2ccccc2)n(C)c1=O,,inconclusive: 8.18%,
Cc1ccc(CNC(=O)C(=O)NCCC2CCCCN2S(=O)(=O)c2ccccc2)cc1 (stereo not drawn),"inconclusive: 23.1 µM [falling, single point]",,
COC(=O)c1sc(N2C(=O)C(=O)/C(=C(/O)c3ccccc3)C2c2ccco2)nc1C (stereo not drawn),,inconclusive: 8.2%,
COC(=O)c1cn(C(=O)/C=C/c2ccc(OC)c(OC)c2)c2ccccc12,"inconclusive: 29.1 µM [rising, single point]",,
CN1CN(C)C(c2ccncc2)=C1c1ccncc1,,inconclusive: -21.8%,
CC1CCN(c2c(NCC3CCC(C(=O)NCc4ccccc4Cl)CC3)c(=O)c2=O)CC1 (stereo not drawn),,inconclusive: -0.093%,
O=C(NCCN1C(=O)S/C(=C/c2cccnc2)C1=O)c1cccs1,active: 2.31 µM,,
Cn1c(SCC(=O)O)nc2ccccc2c1=O,,inconclusive: -4.83%,
COc1ccc(-n2c(SCC(=O)Nc3ccc(C(=O)O)cc3)nnc2-c2ccccc2)cc1OC,,inconclusive: 13%,

# A second format for 3 compounds above:
SMILES | Potency | lipid storage change, negative = inhibition | outcome
CC1CCN(c2c(NCC3CCC(C(=O)NCc4ccccc4Cl)CC3)c(=O)c2=O)CC1 (stereo not drawn) |  | inconclusive: -0.093% | 
O=C(NCCN1C(=O)S/C(=C/c2cccnc2)C1=O)c1cccs1 | active: 2.31 µM |  | 
Cn1c(SCC(=O)O)nc2ccccc2c1=O |  | inconclusive: -4.83% | 

# (list continues)

SMILES,Potency,"lipid storage change, negative = inhibition",outcome
COc1ccc(Nc2nc(N)nc(CSCCO)n2)cc1,"inconclusive: 0.259 µM [falling, partial curve, poor fit]",,
Cc1ccn2c(/C=N/OCc3cccc(F)c3)c(-c3ccc(Cl)cc3)nc2c1,,inconclusive: -24%,
O=C(N1CCOCC1)C12CC3CC(C1)CC(c1ccccc1)(C3)C2,,inconclusive: 53.5% [activator] [at 0.0737 µM],
CCc1ccc(CCC(=O)Nc2ccc(C)cc2C)o1,"inconclusive: 2.59 µM [activator, partial curve, poor fit]",,
O=C(NC(=S)N(CCO)Cc1ccccc1)c1ccc(F)cc1Cl,,inconclusive: -17.9%,
Cc1nn(CC(=O)NCC2CCCO2)c(=O)c2ccccc12 (stereo not drawn),,inconclusive: 49.5%,
Cc1cc(C(=O)NC2CC2)c2ccccc2n1,,inconclusive: -13.6%,
CCOC(=O)c1cc2c(nc1C)-c1cc(Cl)cc(Cl)c1OC2O (stereo not drawn),,inconclusive: -6.86%,
O=C(CC1(O)C(=O)N(CCc2ccccc2)c2ccccc21)c1ccco1 (stereo not drawn),"inconclusive: 2.91 µM [activator, single point]",,
COc1ccc(NC(=O)c2cc(-c3cccs3)on2)cc1,,inconclusive: 36.8%,
Cn1c(=O)cc(OCCCC(=O)NCc2cccnc2)c2ccccc21,,inconclusive: -2.11%,
COC(=O)c1ccc(Nc2nc(C)cc(C)n2)cc1,,inconclusive: -45.6%,
O=C(O)/C=C/c1cnc2ccccc2c1,,inconclusive: 27.3%,
Cn1c(NCc2ccco2)nc2c1c(=O)n(Cc1ccc(Cl)cc1)c(=O)n2C,"inconclusive: 6.51 µM [activator, single point]",,
CCc1nc(N2CCN(S(C)(=O)=O)CC2)c2c3c(sc2n1)CCCC3,,inconclusive: 4.05%,
COc1ccc(-c2cc(-c3n[nH]c(=S)n3-c3cccc4ccccc34)[nH]n2)cc1,,inconclusive: -23.3%,
O=C(O)c1cc([N+](=O)[O-])ccc1NCc1ccccn1,,inconclusive: 12.4%,
N#CCC(=O)N/N=C/c1coc2ccccc2c1=O,,inconclusive: 9.8%,
Cc1cc(C=O)c(C)n1-c1ccc(NC2CCCCC2)c([N+](=O)[O-])c1,,inconclusive: 79.6%,
Cc1oc2cc3oc(=O)c(CC(=O)NCCCC(=O)O)c(C)c3cc2c1C,,inconclusive: -5.94%,
CCc1ccccc1NC(=O)c1cc(-c2ccc(OC)cc2)on1,"inconclusive: 18.4 µM [activator, partial curve]",,
CC(=O)Nc1ccc(NC(=O)C2CC(=O)N(c3cccc(C)c3C)C2)cc1 (stereo not drawn),,inconclusive: 0.0542%,
CCC(=O)NCCNc1nc2cc(C)c(C)cc2cc1C#N,,inconclusive: -16.9%,
COc1ccccc1C(=O)NCC(=O)N/N=C/c1ccncc1,"inconclusive: 4.61 µM [falling, single point]",,
COc1cn(-c2ccccc2)nc1C(=O)NCc1ccccc1,,,inactive [at 46.1 µM]
Cc1ccc(C(=O)N/N=C(\CC(C)C)c2ccccc2)cc1,"inconclusive: 25.9 µM [activator, single point]",,

SMILES,Potency,"lipid storage change, negative = inhibition",outcome
CCOC(=O)c1c(NC(=O)COC(=O)/C=C/c2ccco2)sc2c1CC(C)(C)NC2(C)C,,inconclusive,
O=C(NCCc1ccco1)C(=O)NCC1OCCCN1S(=O)(=O)c1ccc(Cl)cc1 (stereo not drawn),,inconclusive: 5.22%,
Cc1ccc(Oc2ccc(OCC(=O)NC3CCS(=O)(=O)C3)cc2)cc1 (stereo not drawn),"inconclusive: 29.1 µM [falling, single point]",,
O=C(Nc1ccccc1C(=O)Nc1ccc(Br)cn1)c1ccccc1Cl,"inconclusive: 0.0058 µM [falling, full curve, poor fit]",,
Cc1c(Br)cccc1NC(=O)c1sccc1-n1cccc1,"inconclusive: 20.6 µM [rising, single point]",,
CN(C)c1nc(-c2cn(CCC#N)c3ccccc23)cs1,"inconclusive: 0.58 µM [activator, single point]",,
COc1ccc(/C=C/C(=O)OCC(=O)Nc2c(C)cccc2C)cc1,,inconclusive: 22.2%,
CCOC(=O)C1C(c2cccc(Cl)c2Cl)NC(=O)NC1(O)C(F)(F)F (stereo not drawn),,inconclusive: -16.9%,
Nc1nc(-c2ccc(Br)cc2)cs1,"inconclusive: 6.51 µM [activator, single point]",,
COc1ccccc1NC(=O)Cc1nnc(SCC(=O)c2ccccc2)n1C,"inconclusive: 11.6 µM [activator, partial curve]",,
CC(C)CSc1nnc2c(n1)[nH]c1ccccc12,"inconclusive: 0.0046 µM [activator, full curve, poor fit]",,
CC(=O)c1cccc(NC(=O)COc2ccc3oc(=O)cc(C)c3c2)c1,,inconclusive: -24.5%,
Cc1ccccc1N1CC(C(=O)N2CCCCCC2)CC1=O (stereo not drawn),,inconclusive: 16.5%,
COc1ccc(OC)c(C(=O)c2ccc(Cl)cc2)c1,,inconclusive: 5.64%,
CCOc1ccc(S(=O)(=O)N2CCC(C(=O)NCc3cccnc3)CC2)cc1C,"inconclusive: 16.4 µM [activator, single point]",,
CC1(C)CC(NC(=O)C2CCC(=O)N(Cc3ccccc3F)C2)CC(C)(C)C1 (stereo not drawn),"inconclusive: 0.58 µM [activator, single point]",,
Cc1nc(N/N=C/c2ccc(O)cc2O)cc(N2CCOCC2)n1,,inconclusive: -65.4%,
O=C(NCCCNC(=O)c1ccco1)c1ccc(Cl)c(Cl)c1,,inconclusive: 63.2%,
Cc1ccc(S(=O)(=O)N(CC(=O)N/N=C/c2cccc(C)c2)c2cccc3cccnc23)cc1,,inconclusive: 15.8%,
COc1ccc(S(=O)(=O)NCC(c2cccnc2)N2CCN(Cc3ccccc3)CC2)cc1 (stereo not drawn),,inconclusive: -29.1%,
NCCCNC(=O)c1ccc(/C=N/O)nc1,,inconclusive: -14.1%,
COC(=O)c1ccc(COc2cc([N+](=O)[O-])cc3cccnc23)o1,,inactive: -4.43%,
COc1ccccc1NC(=S)N/N=C/c1cccc(C)c1,,inconclusive: 25.9%,
CCOc1ccccc1NC(=O)C(NC(=O)C1CCC(C)CC1)C(C)C (stereo not drawn),,inconclusive: -27.9%,
N#Cc1ccc(CSCC(=O)O)cc1,,inconclusive: -14%,
COc1cc(Cl)c(NS(=O)(=O)c2c(C(=O)N3CCCC3)c(C)n(C)c2C)c(OC)c1,,inconclusive: 79.9%,
